Measurements reported in the supplement of paper PMC6411743.
± gives the standard deviation of the averaged measurements. Some of the results follow.

Chains of the proteins cited; added tags and fusions are not shown. Lines headed by an entry give the natural chain unless they say otherwise; changes in a name come on top.
UniProt Q01432: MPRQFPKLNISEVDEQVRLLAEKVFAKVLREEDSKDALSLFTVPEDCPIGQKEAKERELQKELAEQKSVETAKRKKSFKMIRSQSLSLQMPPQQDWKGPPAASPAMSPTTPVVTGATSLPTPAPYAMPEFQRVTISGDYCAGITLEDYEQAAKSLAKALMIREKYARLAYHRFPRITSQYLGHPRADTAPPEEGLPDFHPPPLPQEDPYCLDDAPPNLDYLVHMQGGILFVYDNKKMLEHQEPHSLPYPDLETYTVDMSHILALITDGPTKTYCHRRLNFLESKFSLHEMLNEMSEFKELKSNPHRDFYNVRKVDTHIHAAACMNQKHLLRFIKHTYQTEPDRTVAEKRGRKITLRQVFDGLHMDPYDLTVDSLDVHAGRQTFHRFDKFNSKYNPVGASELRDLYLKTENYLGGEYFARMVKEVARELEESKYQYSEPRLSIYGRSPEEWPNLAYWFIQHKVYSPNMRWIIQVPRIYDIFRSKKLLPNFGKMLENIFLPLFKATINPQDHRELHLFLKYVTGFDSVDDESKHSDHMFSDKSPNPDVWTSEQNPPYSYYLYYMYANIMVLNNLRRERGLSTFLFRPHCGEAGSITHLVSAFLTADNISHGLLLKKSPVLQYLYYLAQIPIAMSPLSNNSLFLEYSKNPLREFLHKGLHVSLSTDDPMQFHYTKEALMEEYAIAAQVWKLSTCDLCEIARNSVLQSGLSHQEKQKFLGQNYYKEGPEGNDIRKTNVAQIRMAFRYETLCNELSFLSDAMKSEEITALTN
UniProt Q13422: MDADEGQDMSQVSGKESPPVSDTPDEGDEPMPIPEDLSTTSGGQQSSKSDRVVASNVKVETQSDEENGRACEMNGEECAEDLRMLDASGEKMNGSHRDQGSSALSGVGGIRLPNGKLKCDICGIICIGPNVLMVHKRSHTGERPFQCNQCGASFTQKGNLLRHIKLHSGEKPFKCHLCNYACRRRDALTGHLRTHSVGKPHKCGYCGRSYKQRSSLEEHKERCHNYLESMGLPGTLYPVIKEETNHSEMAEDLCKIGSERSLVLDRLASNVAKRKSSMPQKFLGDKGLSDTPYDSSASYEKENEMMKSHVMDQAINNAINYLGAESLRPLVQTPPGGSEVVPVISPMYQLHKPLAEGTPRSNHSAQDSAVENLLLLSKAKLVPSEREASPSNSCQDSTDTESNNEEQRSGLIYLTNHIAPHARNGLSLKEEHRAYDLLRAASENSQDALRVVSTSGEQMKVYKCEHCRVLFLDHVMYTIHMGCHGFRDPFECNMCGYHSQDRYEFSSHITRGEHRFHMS
UniProt Q13423: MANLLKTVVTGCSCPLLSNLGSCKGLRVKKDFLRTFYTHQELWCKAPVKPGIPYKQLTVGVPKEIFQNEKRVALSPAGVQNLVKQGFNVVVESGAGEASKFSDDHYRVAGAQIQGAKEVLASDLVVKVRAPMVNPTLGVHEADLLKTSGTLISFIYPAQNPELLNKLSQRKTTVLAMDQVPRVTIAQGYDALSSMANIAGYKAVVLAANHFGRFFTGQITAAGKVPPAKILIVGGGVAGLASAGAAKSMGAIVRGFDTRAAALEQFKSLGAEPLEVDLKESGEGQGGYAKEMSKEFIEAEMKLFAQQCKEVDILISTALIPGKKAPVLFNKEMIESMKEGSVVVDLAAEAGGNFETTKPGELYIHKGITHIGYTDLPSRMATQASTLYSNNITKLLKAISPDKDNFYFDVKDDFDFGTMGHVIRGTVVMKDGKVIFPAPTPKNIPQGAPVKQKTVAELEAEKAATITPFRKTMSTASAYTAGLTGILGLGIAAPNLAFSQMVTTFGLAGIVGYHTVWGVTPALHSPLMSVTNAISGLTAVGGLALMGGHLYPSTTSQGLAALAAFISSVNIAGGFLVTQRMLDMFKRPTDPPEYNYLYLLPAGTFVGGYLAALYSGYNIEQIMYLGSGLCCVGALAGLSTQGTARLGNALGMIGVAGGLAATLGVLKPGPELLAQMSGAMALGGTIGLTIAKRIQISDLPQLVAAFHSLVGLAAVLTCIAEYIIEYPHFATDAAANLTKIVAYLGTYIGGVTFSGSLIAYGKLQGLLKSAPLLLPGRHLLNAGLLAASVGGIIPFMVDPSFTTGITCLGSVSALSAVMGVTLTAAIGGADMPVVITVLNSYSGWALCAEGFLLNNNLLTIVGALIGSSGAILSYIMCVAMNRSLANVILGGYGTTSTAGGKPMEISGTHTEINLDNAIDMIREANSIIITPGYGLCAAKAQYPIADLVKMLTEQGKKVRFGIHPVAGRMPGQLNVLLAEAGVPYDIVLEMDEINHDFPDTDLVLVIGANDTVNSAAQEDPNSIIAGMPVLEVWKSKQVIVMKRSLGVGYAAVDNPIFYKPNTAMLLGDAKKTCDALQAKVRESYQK
UniProt Q14137: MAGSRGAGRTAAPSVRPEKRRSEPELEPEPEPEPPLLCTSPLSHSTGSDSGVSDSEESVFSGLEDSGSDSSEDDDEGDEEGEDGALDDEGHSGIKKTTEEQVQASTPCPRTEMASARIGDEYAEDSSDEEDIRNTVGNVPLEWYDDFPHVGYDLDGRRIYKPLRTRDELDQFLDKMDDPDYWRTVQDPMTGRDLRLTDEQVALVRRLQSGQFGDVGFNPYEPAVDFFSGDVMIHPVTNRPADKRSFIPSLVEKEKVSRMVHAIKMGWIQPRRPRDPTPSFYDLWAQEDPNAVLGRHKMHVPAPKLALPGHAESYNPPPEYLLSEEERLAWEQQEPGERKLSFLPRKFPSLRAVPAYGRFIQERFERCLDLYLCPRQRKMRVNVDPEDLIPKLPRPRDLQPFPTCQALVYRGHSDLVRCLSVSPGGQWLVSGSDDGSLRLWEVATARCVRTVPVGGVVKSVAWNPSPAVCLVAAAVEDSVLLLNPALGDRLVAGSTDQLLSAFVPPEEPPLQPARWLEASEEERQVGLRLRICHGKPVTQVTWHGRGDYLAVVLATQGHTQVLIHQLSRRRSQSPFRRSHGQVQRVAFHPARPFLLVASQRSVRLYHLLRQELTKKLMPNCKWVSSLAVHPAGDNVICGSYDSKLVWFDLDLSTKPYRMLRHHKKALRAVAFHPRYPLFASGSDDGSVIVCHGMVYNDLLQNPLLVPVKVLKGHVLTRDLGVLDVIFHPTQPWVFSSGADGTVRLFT
UniProt Q09472, whole entry: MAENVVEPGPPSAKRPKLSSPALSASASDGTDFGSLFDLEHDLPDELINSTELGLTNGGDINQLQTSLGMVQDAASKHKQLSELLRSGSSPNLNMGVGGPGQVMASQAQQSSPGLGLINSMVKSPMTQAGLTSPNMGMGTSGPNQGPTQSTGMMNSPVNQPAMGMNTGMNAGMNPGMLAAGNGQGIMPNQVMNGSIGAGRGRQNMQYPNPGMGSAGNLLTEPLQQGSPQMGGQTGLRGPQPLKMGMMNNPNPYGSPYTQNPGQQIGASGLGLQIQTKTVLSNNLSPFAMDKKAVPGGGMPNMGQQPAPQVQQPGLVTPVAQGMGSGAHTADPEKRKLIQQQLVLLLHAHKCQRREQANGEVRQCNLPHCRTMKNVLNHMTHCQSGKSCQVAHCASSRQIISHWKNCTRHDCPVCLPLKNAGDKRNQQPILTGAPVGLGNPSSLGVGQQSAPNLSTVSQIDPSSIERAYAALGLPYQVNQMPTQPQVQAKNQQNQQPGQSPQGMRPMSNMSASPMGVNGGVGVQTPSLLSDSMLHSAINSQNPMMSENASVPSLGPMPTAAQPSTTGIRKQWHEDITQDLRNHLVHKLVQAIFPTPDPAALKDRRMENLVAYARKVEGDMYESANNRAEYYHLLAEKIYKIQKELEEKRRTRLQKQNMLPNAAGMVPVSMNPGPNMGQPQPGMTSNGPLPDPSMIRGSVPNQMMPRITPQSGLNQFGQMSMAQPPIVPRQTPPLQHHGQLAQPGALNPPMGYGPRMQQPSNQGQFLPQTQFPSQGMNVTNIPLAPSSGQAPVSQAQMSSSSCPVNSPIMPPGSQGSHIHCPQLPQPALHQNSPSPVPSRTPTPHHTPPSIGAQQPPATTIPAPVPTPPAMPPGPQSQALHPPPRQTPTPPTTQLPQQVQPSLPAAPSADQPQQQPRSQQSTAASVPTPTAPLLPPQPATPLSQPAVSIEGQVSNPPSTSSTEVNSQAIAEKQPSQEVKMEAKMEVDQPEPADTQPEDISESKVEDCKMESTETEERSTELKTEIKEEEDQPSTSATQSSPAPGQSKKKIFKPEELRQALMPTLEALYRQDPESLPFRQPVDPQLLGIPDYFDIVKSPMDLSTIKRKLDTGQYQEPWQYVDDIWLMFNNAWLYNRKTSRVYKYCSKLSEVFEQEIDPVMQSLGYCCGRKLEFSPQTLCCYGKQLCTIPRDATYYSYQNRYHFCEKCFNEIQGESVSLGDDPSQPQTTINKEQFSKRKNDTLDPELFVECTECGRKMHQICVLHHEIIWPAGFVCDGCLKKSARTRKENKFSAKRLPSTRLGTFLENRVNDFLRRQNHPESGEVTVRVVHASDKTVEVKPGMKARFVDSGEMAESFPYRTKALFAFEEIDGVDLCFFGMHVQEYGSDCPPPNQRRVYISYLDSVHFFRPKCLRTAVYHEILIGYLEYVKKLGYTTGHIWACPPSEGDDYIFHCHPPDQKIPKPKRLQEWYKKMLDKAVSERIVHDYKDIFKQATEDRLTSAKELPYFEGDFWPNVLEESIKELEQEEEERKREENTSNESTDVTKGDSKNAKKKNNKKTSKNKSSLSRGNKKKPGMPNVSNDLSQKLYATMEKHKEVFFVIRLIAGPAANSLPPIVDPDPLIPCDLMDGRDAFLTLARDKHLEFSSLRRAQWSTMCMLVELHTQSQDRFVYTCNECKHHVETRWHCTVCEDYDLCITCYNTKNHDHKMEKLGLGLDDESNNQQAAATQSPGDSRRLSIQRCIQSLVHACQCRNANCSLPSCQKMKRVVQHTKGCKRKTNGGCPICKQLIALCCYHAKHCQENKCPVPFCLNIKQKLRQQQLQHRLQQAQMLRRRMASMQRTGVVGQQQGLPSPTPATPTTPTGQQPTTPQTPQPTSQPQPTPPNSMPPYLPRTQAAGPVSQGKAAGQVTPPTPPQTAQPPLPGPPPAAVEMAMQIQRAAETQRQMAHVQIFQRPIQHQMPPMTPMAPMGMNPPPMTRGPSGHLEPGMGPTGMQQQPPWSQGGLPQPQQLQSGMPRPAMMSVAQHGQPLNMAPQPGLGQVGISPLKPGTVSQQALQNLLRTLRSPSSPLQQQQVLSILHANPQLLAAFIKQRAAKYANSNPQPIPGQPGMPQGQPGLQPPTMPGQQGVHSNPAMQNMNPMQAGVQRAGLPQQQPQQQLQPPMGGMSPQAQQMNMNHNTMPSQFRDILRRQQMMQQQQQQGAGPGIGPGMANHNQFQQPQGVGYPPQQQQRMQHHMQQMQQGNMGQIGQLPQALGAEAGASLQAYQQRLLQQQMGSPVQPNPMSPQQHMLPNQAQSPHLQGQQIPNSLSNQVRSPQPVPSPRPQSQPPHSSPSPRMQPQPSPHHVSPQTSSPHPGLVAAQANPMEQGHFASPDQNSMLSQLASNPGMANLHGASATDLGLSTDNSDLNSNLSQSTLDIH
UniProt Q14181: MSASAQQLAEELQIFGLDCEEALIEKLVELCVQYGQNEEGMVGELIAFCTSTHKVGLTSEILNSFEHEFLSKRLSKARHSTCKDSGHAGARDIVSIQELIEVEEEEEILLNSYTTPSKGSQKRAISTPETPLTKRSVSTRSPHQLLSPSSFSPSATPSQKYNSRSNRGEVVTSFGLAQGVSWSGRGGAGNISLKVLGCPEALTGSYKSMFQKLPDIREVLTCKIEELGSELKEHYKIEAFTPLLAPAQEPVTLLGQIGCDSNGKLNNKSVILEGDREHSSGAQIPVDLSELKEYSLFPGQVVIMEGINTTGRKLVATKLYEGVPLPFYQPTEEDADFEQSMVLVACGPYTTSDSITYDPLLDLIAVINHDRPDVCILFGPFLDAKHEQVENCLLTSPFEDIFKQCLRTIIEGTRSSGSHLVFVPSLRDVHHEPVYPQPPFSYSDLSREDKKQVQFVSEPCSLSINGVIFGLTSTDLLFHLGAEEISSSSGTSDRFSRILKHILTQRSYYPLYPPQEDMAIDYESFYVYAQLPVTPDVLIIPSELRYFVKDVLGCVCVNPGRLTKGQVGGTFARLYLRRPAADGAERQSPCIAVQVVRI
UniProt Q12765: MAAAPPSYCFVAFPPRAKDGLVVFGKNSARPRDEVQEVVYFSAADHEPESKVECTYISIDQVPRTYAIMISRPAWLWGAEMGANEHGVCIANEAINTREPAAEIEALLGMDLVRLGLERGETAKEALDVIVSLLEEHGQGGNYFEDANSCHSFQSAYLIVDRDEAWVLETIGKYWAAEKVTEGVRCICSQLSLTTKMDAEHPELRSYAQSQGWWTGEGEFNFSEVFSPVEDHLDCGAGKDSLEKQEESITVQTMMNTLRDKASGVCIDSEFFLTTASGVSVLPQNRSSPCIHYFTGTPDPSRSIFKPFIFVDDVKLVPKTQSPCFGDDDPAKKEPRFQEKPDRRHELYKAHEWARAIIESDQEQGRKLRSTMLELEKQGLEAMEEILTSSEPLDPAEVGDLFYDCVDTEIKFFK

Compound: Nc1nc2c(ncn2[C@@H]2O[C@H](COP(=O)(O)OP(=O)(O)OP(=O)(O)O)[C@@H](O)[C@H]2O)c(=O)[nH]1 [guanosine triphosphate]
Experiment: NP40-soluble protein abundance relative to vehicle (solubility fold change) (ratio); higher = more soluble protein in presence of GTP
In short: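 Crude Jurkat lysate, prepared by Dounce homogenisation, was exposed to eight concentrations from 0.1 to 10 mM for 10 min at room temperature and then 3 min at 37 °C. Solubilisation used 0.8% NP40 with benzonase for 60 min at 4 °C, followed by ultracentrifugation and TMT labelling of the supernatant for LC-MS/MS. After vsn normalisation of intensities, each value is the fold change against the detergent-processed vehicle within each replicate, across three independent experiments.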

Target	NP40-soluble protein abundance (concentration: 0.1mM)	NP40-soluble protein abundance (concentration: 0.5mM)	NP40-soluble protein abundance (concentration: 1mM)	NP40-soluble protein abundance (concentration: 2mM)	NP40-soluble protein abundance (concentration: 4mM)	NP40-soluble protein abundance (concentration: 6mM)	NP40-soluble protein abundance (concentration: 8mM)	NP40-soluble protein abundance (concentration: 10mM)
UniProt Q13625 and related entries	0.939 ± 0.058	0.941 ± 0.08	0.918 ± 0.059	0.93 ± 0.12	0.924 ± 0.072	0.923 ± 0.1	0.967 ± 0.049	0.998 ± 0.057
UniProt Q07021 and related entries	0.809 ± 0.2	0.659 ± 0.19	0.779 ± 0.35	0.926 ± 0.23	0.745 ± 0.31	0.976 ± 0.19	0.862 ± 0.36	0.819 ± 0.043
REEP5 (UniProt Q00765)	0.863 ± 0.048	0.84 ± 0.09	0.9 ± 0.098	0.866 ± 0.1	0.88 ± 0.12	0.817 ± 0.077	0.819 ± 0.11	0.898 ± 0.12
SLFN5 (UniProt Q08AF3)	1.12 ± 0.081	1.12 ± 0.12	1.05 ± 0.072	1.09 ± 0.1	1.08 ± 0.11	1.04 ± 0.11	1.03 ± 0.029	1.01 ± 0.033
PRKCQ (UniProt Q04759)	1.07 ± 0.045	1.05 ± 0.046	0.96 ± 0.028	0.957 ± 0.081	0.9 ± 0.051	0.936 ± 0.075	0.915 ± 0.053	0.856 ± 0.099
UniProt Q12906 and related entries	0.996 ± 0.013	1.04 ± 0.022	1.1 ± 0.047	1.15 ± 0.085	1.21 ± 0.13	1.25 ± 0.12	1.28 ± 0.18	1.26 ± 0.15
UniProt Q13164	1.09 ± 0.083	1.02 ± 0.065	1.05 ± 0.063	1.02 ± 0.13	1.01 ± 0.092	1.04 ± 0.15	1.01 ± 0.067	1 ± 0.077
NUP160 (UniProt Q12769)	1.08 ± 0.067	1.11 ± 0.14	1.07 ± 0.12	1.1 ± 0.18	1.14 ± 0.17	1.1 ± 0.17	1.17 ± 0.11	1.19 ± 0.066
GOLGA3 (UniProt Q08378)	0.982 ± 0.076	0.995 ± 0.033	1.04 ± 0.041	1.01 ± 0.057	1.02 ± 0.039	1.03 ± 0.038	1.06 ± 0.074	1.07 ± 0.082
UniProt Q01432 and related entries	1.09 ± 0.051	1.17 ± 0.038	1.04 ± 0.04	1.08 ± 0.062	1.03 ± 0.079	1.05 ± 0.093	0.987 ± 0.045	0.991 ± 0.12
UniProt Q13422 and related entries	0.987 ± 0.044	0.997 ± 0.038	1.01 ± 0.016	1 ± 0.029	1.02 ± 0.018	1.063 ± 0.0066	1.11 ± 0.021	1.13 ± 0.045
CTBS (UniProt Q01459)	0.937 ± 0.0074	0.95 ± 0.04	0.909 ± 0.04	0.918 ± 0.07	0.863 ± 0.054	0.894 ± 0.04	0.881 ± 0.035	0.892 ± 0.055
NNT (UniProt Q13423)	0.967 ± 0.011	0.9948 ± 0.0079	0.958 ± 0.01	0.95 ± 0.012	0.92 ± 0.038	0.947 ± 0.02	0.9257 ± 0.0027	0.92 ± 0.028
CHAF1B (UniProt Q13112)	1.04 ± 0.021	1.07 ± 0.029	1.03 ± 0.036	1.041 ± 0.01	1.04 ± 0.024	1.04 ± 0.013	1.06 ± 0.068	1.02 ± 0.012
BOP1 (UniProt Q14137)	1.03 ± 0.043	1.04 ± 0.026	1.03 ± 0.026	1.03 ± 0.022	1.01 ± 0.048	1.02 ± 0.013	0.994 ± 0.029	0.967 ± 0.035
UniProt Q14643 and related entries	1.03 ± 0.031	1.06 ± 0.069	1.06 ± 0.011	1.05 ± 0.11	1.03 ± 0.074	1.05 ± 0.054	1.03 ± 0.093	1.01 ± 0.1
SPAG1 (UniProt Q07617)	1.14 ± 0.23	1.03 ± 0.088	0.976 ± 0.065	0.976 ± 0.036	0.965 ± 0.043	0.973 ± 0.051	0.956 ± 0.053	0.978 ± 0.054
UniProt Q13885	0.962 ± 0.19	0.962 ± 0.13	0.98 ± 0.16	0.966 ± 0.17	0.993 ± 0.24	0.916 ± 0.16	0.985 ± 0.19	0.959 ± 0.2
EP300 (UniProt Q09472)	1.11 ± 0.037	1.05 ± 0.051	1.05 ± 0.053	1.05 ± 0.071	1.04 ± 0.064	0.993 ± 0.053	1.02 ± 0.076	1.01 ± 0.047
NMI (UniProt Q13287)	1 ± 0.03	0.969 ± 0.029	0.959 ± 0.033	0.93 ± 0.026	0.941 ± 0.065	0.929 ± 0.034	0.932 ± 0.024	0.909 ± 0.056
SORD (UniProt Q00796)	0.971 ± 0.079	1.01 ± 0.049	0.915 ± 0.056	0.931 ± 0.019	0.924 ± 0.037	0.9311 ± 0.0048	0.931 ± 0.075	0.909 ± 0.022
DSG2 (UniProt Q14126)	1.03 ± 0.024	0.989 ± 0.032	1.04 ± 0.11	0.972 ± 0.089	0.987 ± 0.11	1.02 ± 0.14	1.03 ± 0.14	1 ± 0.14
POLA2 (UniProt Q14181)	1.08 ± 0.053	1.03 ± 0.043	1.04 ± 0.032	0.97 ± 0.058	1.07 ± 0.047	1.01 ± 0.075	1.08 ± 0.024	0.971 ± 0.051
SF3A3 (UniProt Q12874)	0.979 ± 0.041	1.04 ± 0.066	1.04 ± 0.05	1.02 ± 0.075	1.04 ± 0.068	1.06 ± 0.062	1.05 ± 0.083	1.04 ± 0.092
UniProt Q13362-2|Q13362-4	0.969 ± 0.03	0.93 ± 0.021	0.9946 ± 0.0062	0.98 ± 0.024	1 ± 0.058	0.939 ± 0.036	1.01 ± 0.039	1 ± 0.028
CBX3 (UniProt Q13185)	0.872 ± 0.038	0.872 ± 0.039	0.987 ± 0.054	0.959 ± 0.045	0.955 ± 0.038	0.989 ± 0.044	1.02 ± 0.092	1.07 ± 0.072
TARBP1 (UniProt Q13395)	0.976 ± 0.079	0.968 ± 0.12	0.959 ± 0.1	1.01 ± 0.033	0.929 ± 0.081	0.951 ± 0.055	0.906 ± 0.12	0.897 ± 0.071
SCARB2 (UniProt Q14108)	0.996 ± 0.061	0.968 ± 0.036	1.02 ± 0.11	0.949 ± 0.081	1.03 ± 0.14	0.974 ± 0.076	0.947 ± 0.13	1.01 ± 0.14
UniProt Q14558-2	1.11 ± 0.07	1.22 ± 0.17	1.2 ± 0.13	1.29 ± 0.2	1.23 ± 0.21	1.28 ± 0.18	1.27 ± 0.23	1.22 ± 0.19
UniProt Q12765 and related entries	0.967 ± 0.015	1.01 ± 0.034	0.951 ± 0.031	0.943 ± 0.037	0.937 ± 0.046	0.943 ± 0.022	0.949 ± 0.029	0.934 ± 0.031

Taken from above.
NP40-soluble protein abundance (concentration: 4mM) with SPAG1 (UniProt Q07617) reads 0.965 ± 0.043
NP40-soluble protein abundance (concentration: 1mM) with EP300 (UniProt Q09472) reads 1.05 ± 0.053
